A short description of the series: Uniformity of distribution of the active ingredients in the blend by HPLC. Format: physicochemical. The protocol: It is usually determined according to known methods, for instance by taking samples from different parts of the powder and testing the component by HPLC or other equivalent analytical methods.
The uniformity of distribution of the active ingredients was evaluated by withdrawing 12 samples from different parts of the blend and evaluated by HPLC.

We go through one compound from US10350164B2, “Process for preparing a dry powder formulation comprising an anticholinergic, a corticosteroid and a beta-adrenergic” (CHIESI FARMACEUTICI S.p.A., priority 2017, dated 2019).

Structures can show the parent of a compound that is named as a salt.

For the compound `COc1ccc(CC(C)NCC(O)c2ccc(O)c(NC=O)c2)cc1` (centres unmarked) [FF, formoterol fumarate dihydrate], the Uniformity of distribution is 99.4 (±1.4) (Example 3 formulation (FF 6 μg/BDP 100 μg/GB 12.5 μg per 10 mg carrier), 12 samples, mean value±RSD) and 99.6 (±1.6) (Example 4 formulation (FF 6 μg/BDP 100 μg/GB 25 μg per 10 mg carrier)).
